From PubChem BioAssay AID504467 (National Center for Advancing Translational Sciences (NCATS), 2011)
The whole screen tested about 330,000 compounds, of which about 7,700 (2.3%) were called active. The inconclusive results got no clear call from the source; some entries with a clear call stand among them for comparison. Calls follow the shape of the dose curve; as a rule, active = well fitted inhibition curve with a large enough effect; inconclusive = small, poorly fitted or top-dose-only effect, or effect the other way; inactive = flat fitted curve, though single readings scatter. A potency beside an inconclusive call is a rough fit, not a confirmed value.

Test: qHTS screen for small molecules that inhibit ELG1-dependent DNA repair in human embryonic kidney (HEK293T) cells expressing luciferase-tagged ELG1; also: nearly all actives have a fitted effect of over 55% in size
Conditions: HEK293T ELG1-luciferase reporter, luminescence, 16 h, DNA damage induced by 5-fluorouridine; activity change, negative = inhibition: at 46.1 µM (top of the series)
In short: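 Luminescence from the luciferase reporter, measured 30 min after ONE-Glo reagent at room temperature, was the read-out. Beforehand, 2,000 cells per well were exposed for 16 hr at 37 °C to 5-fluorouridine together with compound or vehicle.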
% is scaled to controls: 0 for no effect and ±100 for the full control effect; potency is read from the fitted curve at half-maximal effect.

Compound	Potency	activity change, negative = inhibition
O=C(c1cc(-c2cccc(Cl)c2)on1)N1CCCC1	inconclusive: 16.4 µM [activator, partial curve]	
O=C(N=C1SC2CS(=O)(=O)CC2N1c1cc(Cl)ccc1Cl)C1CCCO1 (stereo not given)	inconclusive: 14.6 µM [activator, partial curve, poor fit]	
Cc1ccccc1-n1c(O)c(/C=N/N2CCCCC2c2cccnc2)c(=O)[nH]c1=O (stereo not given)	inactive	
CCc1ccc(OCC(=O)NNC(=O)c2cnccn2)c(Br)c1	inactive	
COC(=O)c1ccc(C(=O)N(CCN(C)C)c2nc3c(Cl)cccc3s2)cc1	inactive	
O=C(CN(Cc1ccc2c(c1)OCO2)C(=O)CSc1nc2ccccc2o1)NC1CCCCC1	inconclusive: 16.4 µM [inhibitor, single point]	
Cc1ccc(NC(=O)c2cccc(NC(=O)/C=C/c3ccco3)c2)cc1C	inconclusive: 25.9 µM [inhibitor, single point]	
Cc1ccccc1NCc1ccc([N+](=O)[O-])s1	inactive	
CC1CC(C)CN(S(=O)(=O)c2ccc(C(=O)Nc3nnc(-c4cccs4)o3)cc2)C1 (stereo not given)	active: 5.8 µM	
COC(=O)c1ccc(OCC(O)CN2C(=O)c3ccccc3C2=O)cc1 (stereo not given)	inactive	
CCCCCn1c(Sc2nc3ccccc3s2)nc2c1c(=O)[nH]c(=O)n2C	active: 20.6 µM	
Cn1c(SCC(=O)N/N=C/c2cc([N+](=O)[O-])ccc2O)nnc1-c1ccccc1	active: 9.2 µM	
Cc1c(C#N)c2ncnc(N)c2n1-c1ccccc1	inconclusive: 13 µM [inhibitor, partial curve]	
Cc1cccc(C2c3[nH]c4ccccc4c3CCN2C(=O)c2nn(C)c(=O)c3ccccc23)n1 (stereo not given)	inconclusive: 32.6 µM [inhibitor, single point]	
C/C(=N/NC(=O)c1ccncc1)c1ccccc1	inconclusive: 13 µM [activator, partial curve]	
Oc1c(N=NC(=S)Nc2ccccc2F)c2ccccc2n1Cc1ccc(Cl)cc1	inconclusive: 3.66 µM [inhibitor, full curve]	
COc1ccccc1C(=O)NCCOc1ccc(C(C)(C)C)cc1	inactive	
O=C(Nc1ccccc1)c1ccc(NCCN2C(=O)CCC2=O)c([N+](=O)[O-])c1	inconclusive: 16.4 µM [inhibitor, single point]	
Cc1ccc(-n2c(Cc3cccs3)nnc2SCC(=O)OC(C)C)cc1	inconclusive: 18.4 µM [inhibitor, partial curve, poor fit]	
CC(C)(C)C(=O)Nc1nnc(SCC(=O)NC2CCCC2)s1	inactive	
Cc1ccsc1/C=N/NC(=O)c1ccc(-n2cccc2)cc1	inconclusive: 20.6 µM [activator, single point]	
O=C(c1c(O)cc(O)cc1O)C1c2c(cc(O)c3c2O[C@H](c2ccc(O)cc2)[C@@H](O)C3)OC1c1ccc(O)cc1 (stereo not given in full)	inactive	
CSc1ccc(C2c3[nH]c4ccccc4c3CCN2C(=O)c2ccnn2C)cc1 (stereo not given)	inconclusive: 6.51 µM [activator, full curve]	

4 entries from above, sorted by SMILES length, high to low:
Compound	Potency	activity change, negative = inhibition
O=C(Nc1ccccc1)c1ccc(NCCN2C(=O)CCC2=O)c([N+](=O)[O-])c1	inconclusive: 16.4 µM [inhibitor, single point]	
O=C(N=C1SC2CS(=O)(=O)CC2N1c1cc(Cl)ccc1Cl)C1CCCO1 (stereo not given)	inconclusive: 14.6 µM [activator, partial curve, poor fit]	
Cc1ccsc1/C=N/NC(=O)c1ccc(-n2cccc2)cc1	inconclusive: 20.6 µM [activator, single point]	
C/C(=N/NC(=O)c1ccncc1)c1ccccc1	inconclusive: 13 µM [activator, partial curve]	

Later entries:

Compound	Potency	activity change, negative = inhibition
COc1ccc(-c2ccc3oc(-c4ccsc4)cc(=O)c3c2)cc1F	inconclusive: 5.8 µM [activator, full curve, poor fit]	
Cc1ccc2c(c1)CCCN2CC(=O)Nc1cc(S(=O)(=O)N2CCCC2)ccc1Cl	inactive	
COc1ccc(F)cc1S(=O)(=O)Nc1cc2c3c(c1)CC(=O)N3CCC2	inconclusive: 8.2 µM [activator, single point]	
c1ccc2oc(SCc3cn4ccccc4n3)nc2c1	inconclusive: 5.01 µM [activator, partial curve]	
CCOc1cccc(-c2c(C(=O)N/N=C(\C)c3ccncc3)nnn2-c2nonc2N)c1	inconclusive: 18.3 µM [inhibitor, partial curve, poor fit]	
CCN(CC)C(=O)C1CC(=O)N(c2ccc(OC)cc2)C1c1ccc(OC)cc1 (stereo not given)	inconclusive: 18.4 µM [inhibitor, single point]	
CCOc1cc(/C=N/NC(=O)c2nn(C)cc2Br)ccc1OCc1ccccc1Cl	inconclusive: 29.1 µM [inhibitor, single point]	
Cc1ccccc1NC(=O)NCCc1c[nH]c2ccccc12	inconclusive: 3.26 µM [inhibitor, single point]	
COc1ccc(-c2cc(C)no2)cc1S(=O)(=O)N1CCN(c2cccc(C)c2)C(C)C1 (stereo not given)	active: 3.26 µM	
COc1ccccc1N1C(=O)C2C3C=CC(CC3)C2C1=O (stereo not given)		inconclusive: 9.13% [activator]
Cc1cnc(C(=O)OC(C(=O)c2c[nH]c3ccccc23)c2ccccc2)cn1 (stereo not given)	inconclusive: 18.3 µM [activator, single point]	
O=C1C(N2CCOCC2)=C(n2nnc3ccccc32)C(=O)c2ccccc21	active: 2.59 µM	
O=C(CSc1ccc(Cl)cc1)Nc1ccc(N2CCN(C(=O)c3ccco3)CC2)cc1	inconclusive: 17.8 µM [inhibitor, single point]	
CC(C)Cn1c(=S)[nH]c2ccccc2c1=O	inactive	
O=C(CCc1ccccc1)c1ccc2c(c1)OCCCO2	inconclusive: 16.4 µM [activator, partial curve]	
Cn1c(=O)[nH]c(=O)c2c1nc(N1CCCCC1)n2CC(O)COc1ccc([N+](=O)[O-])cc1 (stereo not given)	inconclusive: 7.3 µM [inhibitor, partial curve, poor fit]	
CCOCCCNC(=O)CN1N=C(c2ccc(C)cc2)CCC1=O	inactive	
CCc1nnc(NC(=O)C23CC4CC(CC(C4)C2)C3)s1	inconclusive: 20.6 µM [activator, partial curve]	
CCN1CCN(c2cc(C)c3cc(NC(=O)c4cccc(OC)c4)ccc3n2)CC1	inconclusive: 18.3 µM [activator, single point]	
Cn1c(=O)n(C)c2cc3[nH]cnc3cc21	inconclusive: 18.3 µM [activator, partial curve]	
CCCCN(CCCC)CC(O)COc1ccccc1Br (stereo not given)	inactive	
Clc1nc2ccccc2cc1/C=N/Nc1nc2ccccc2[nH]1	inconclusive: 2.91 µM [activator, full curve]	
